# Results published in the supplement of paper PMC7125110.
# ± gives the standard error. Many of these values have a large error.
# B1: glmS ribozyme (parent)
# chain: AUAAAAGCGCCAGAACUACAGAAAUGUAGUUGACGAGGAGGAGGUUUAUCGAAUUUUCGGCGGAUGCCUCCAAA
# Variants of: B1
# Assay: self-cleavage kobs at 40 uM GlcN6P; higher = faster cleavage; RNA array
# Conditions: with glucosamine-6-phosphate
# Outline: (§1)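 kcat and KM were obtained from weighted Michaelis–Menten fits across concentrations of kobs values. Those came from one- or two-exponential decay fits to per-tile medians normalised to baseline and to non-cleaving reference variants. The variants were barcoded ribozymes transcribed in situ by E. coli RNA polymerase on sequenced MiSeq chips and tracked through a hybridised Cy3 probe at 37 °C, with 40 μM to 10 mM glucosamine-6-phosphate in HEPES/KCl/Mg(OAc)2 buffer flowed in.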
row,Variant,self-cleavage kobs at 40 uM GlcN6P [s⁻¹]
1,C61U C68G,2.92e-05 ± 1.5e-05
2,C61U C68G U69G,2.91e-05 ± 2.4e-05
3,G63U U69G,1.85e-05 ± 1.8e-05
4,A64G C71A,1.64e-05 ± 1.5e-05
5,U65A C68A,2.43e-05 ± 1.3e-05
6,C67A C68U,1.79e-05 ± 1e-05
7,C67U U69G,1.45e-05 ± 1.3e-05
8,U69G C70A,2.21e-05 ± 1.4e-05
9,U69G C70U,1.9e-05 ± 1.3e-05

# Variants of: B1
# Assay: self-cleavage kobs at 10000 uM GlcN6P; higher = faster cleavage; RNA array
# Conditions: with glucosamine-6-phosphate
# Outline: as §1
row,Variant,self-cleavage kobs at 10000 uM GlcN6P [s⁻¹]
1,C61U C68G,1.68e-05 ± 1.3e-05
2,C67U U69G,1.26e-05 ± 1.1e-05
3,U69G C70A,1.82e-05 ± 9.9e-06
4,G7U C50G,0.000474 ± 0.00032
5,C10A C70U,1.69e-05 ± 1.1e-05
6,C10U A12C A39U,1.91e-05 ± 1.4e-05

# Variants of: B1
# Assay: self-cleavage kobs at 2500 uM GlcN6P; higher = faster cleavage; RNA array
# Conditions: with glucosamine-6-phosphate
# Outline: as §1
row,Variant,self-cleavage kobs at 2500 uM GlcN6P [s⁻¹]
1,G63U U69G,2.83e-05 ± 1.5e-05
2,A6C G29A U57G U69G,4.29e-05 ± 3.8e-05
3,A6U C50A U57G C67U,3.55e-05 ± 2.1e-05
4,A6U G13A G59U C61G C68U,4.95e-05 ± 2.7e-05
5,G7U C10G C68G,3.53e-05 ± 3.4e-05
6,C10A A48G C50U C70G,3.87e-05 ± 2.9e-05
7,C10A C50A,2.71e-05 ± 2e-05
8,C10A G59A C68G U69C,4.01e-05 ± 2.1e-05
9,C10A U30A C68U,6.4e-05 ± 3.6e-05
10,C10U A12C A39U,2.25e-05 ± 1.8e-05
11,C10U G29U C67U C68U,2.61e-05 ± 2.2e-05
12,C10U U31C U56A C68G,2.67e-05 ± 1.9e-05

# Variants of: B1
# Assay: self-cleavage kobs at 640 uM GlcN6P; higher = faster cleavage; RNA array
# Conditions: with glucosamine-6-phosphate
# Outline: as §1
row,Variant,self-cleavage kobs at 640 uM GlcN6P [s⁻¹]
1,C67U U69G,0.00161 ± 0.00095
2,A6C G7U A14U G37U U69C,4.28e-05 ± 3.9e-05
3,A6C G29A U57G U69G,3.83e-05 ± 3e-05
4,A6G A12U C16U,3.91e-05 ± 2.6e-05
5,A6G C11G C68A,2.95e-05 ± 2.5e-05
6,A6G C11G U69G,4.5e-05 ± 3.1e-05
7,A6G C71U,1.85e-05 ± 1.4e-05
8,A6U A15C,1.95e-05 ± 1e-05
9,A6U A36G A52G C70G,5.24e-05 ± 2.9e-05
10,A6U A39G,2.3e-05 ± 1.5e-05
11,A6U C50A U57G C67U,4.55e-05 ± 3.4e-05
12,A6U G13A G59U C61G C68U,3.8e-05 ± 3.2e-05
13,A6U G29U C71U,4.19e-05 ± 3.6e-05
14,A6U U31A U47G C50A A64G C68U,2.66e-05 ± 2.6e-05
15,G7A A12U,2.23e-05 ± 1.4e-05
16,G7A A14C G37U G60A C67G,2.86e-05 ± 2.1e-05
17,G7A C34U C70G,3.23e-05 ± 3.1e-05
18,G7A C61A,2.78e-05 ± 2.7e-05
19,G7A G29C C34U G37U C67U C71A,0.00155 ± 0.00086
20,G7A U30C C61A C67U,4.7e-05 ± 4.2e-05
21,G7U A14U C16G U49C C68G,5.27e-05 ± 2.7e-05
22,G7U C10G C68G,4.7e-05 ± 3.6e-05

row,Variant,self-cleavage kobs at 640 uM GlcN6P [s⁻¹]
1,G7U C50G,2.74e-05 ± 1.6e-05
2,G7U U30G U69A,3.19e-05 ± 2.6e-05
3,G7U U47G C50U,3.97e-05 ± 3e-05
4,C8A A52C U65A C68G,3.4e-05 ± 2.1e-05
5,C8G A36G U69A,4.98e-05 ± 5e-05
6,C8G C10A C50A C67A,0.00131 ± 0.00076
7,C8G U47G C50A U65G C70G,3.07e-05 ± 3.1e-05
8,G9A C34G,0.000997 ± 0.00096
9,G9A G32A A33U C67G C68U,0.00185 ± 0.0012
10,C10A A15G G38U G63U U69G,4.3e-05 ± 2.6e-05
11,C10A A48G C50U C70G,3.78e-05 ± 2.4e-05
12,C10A A53U G60U,1.98e-05 ± 1.3e-05
13,C10A C34A A53U U69G,6.12e-05 ± 4.1e-05
14,C10A C50A,2.01e-05 ± 1.9e-05
15,C10A C61A,2.95e-05 ± 1.8e-05
16,C10A C70U,0.000589 ± 0.00038
17,C10A G59A C68G U69C,2.96e-05 ± 2.8e-05
18,C10A U30A C68U,6.78e-05 ± 4e-05
19,C10A U46G C68G,4.9e-05 ± 3.1e-05
20,C10G A12G U47G U54C C68U,2.38e-05 ± 2e-05
21,C10G A12U C34A C58U C67G,0.0648 ± 0.034
22,C10G A14U G29C U31G C71A,0.000281 ± 0.00019

row,Variant,self-cleavage kobs at 640 uM GlcN6P [s⁻¹]
1,C10G A53G U56A C68A,2.23e-05 ± 2.1e-05
2,C10G G29U G32U C71G,5.4e-05 ± 4.3e-05
3,C10U A12C A39U,2.43e-05 ± 1.9e-05
4,C10U A12U A42G,2.6e-05 ± 2.1e-05
5,C10U A15C U46G C68G,6.98e-05 ± 3.6e-05
6,C10U C70A,1.93e-05 ± 1.5e-05
7,C10U G29U C61A C67G,3.8e-05 ± 2.4e-05
8,C10U G29U C67U C68U,0.000116 ± 8.5e-05
9,C10U G35U U57A U65G C68A,0.000454 ± 0.00026
10,C10U U31C U56A C68G,3.06e-05 ± 2.9e-05
11,C10U U55A,1.78e-05 ± 1.7e-05
12,C11A A12C G32U C50G,0.000176 ± 0.0001
13,C11A A14U C71U,3.06e-05 ± 1.9e-05
14,C11A A36G C70A,2.78e-05 ± 2.5e-05
15,C11A C50U A52G C67G C68A,2.82e-05 ± 2.2e-05
16,C11G A14U C70A,4.19e-05 ± 2.5e-05
17,C11G A15U G29A C61A,3.4e-05 ± 2.5e-05
18,C11G C50U C58G,4.14e-05 ± 2.9e-05
19,C11G C61A C68A,3.62e-05 ± 2.5e-05
20,C11G G59U,2.07e-05 ± 1.9e-05
21,C11G U30C U65G U69A,3.15e-05 ± 2e-05
22,C11G U54C C67U C70A,2.27e-05 ± 2.2e-05

# Given tab-delimited: entries from further up
row	Variant	self-cleavage kobs at 640 uM GlcN6P [s⁻¹]
19	C10A U46G C68G	4.9e-05 ± 3.1e-05
20	C10G A12G U47G U54C C68U	2.38e-05 ± 2e-05
21	C10G A12U C34A C58U C67G	0.0648 ± 0.034
22	C10G A14U G29C U31G C71A	0.000281 ± 0.00019
1	C10G A53G U56A C68A	2.23e-05 ± 2.1e-05
2	C10G G29U G32U C71G	5.4e-05 ± 4.3e-05
3	C10U A12C A39U	2.43e-05 ± 1.9e-05
4	C10U A12U A42G	2.6e-05 ± 2.1e-05
5	C10U A15C U46G C68G	6.98e-05 ± 3.6e-05
6	C10U C70A	1.93e-05 ± 1.5e-05
7	C10U G29U C61A C67G	3.8e-05 ± 2.4e-05
8	C10U G29U C67U C68U	0.000116 ± 8.5e-05
9	C10U G35U U57A U65G C68A	0.000454 ± 0.00026
10	C10U U31C U56A C68G	3.06e-05 ± 2.9e-05
11	C10U U55A	1.78e-05 ± 1.7e-05
12	C11A A12C G32U C50G	0.000176 ± 0.0001
13	C11A A14U C71U	3.06e-05 ± 1.9e-05
14	C11A A36G C70A	2.78e-05 ± 2.5e-05
15	C11A C50U A52G C67G C68A	2.82e-05 ± 2.2e-05
16	C11G A14U C70A	4.19e-05 ± 2.5e-05
17	C11G A15U G29A C61A	3.4e-05 ± 2.5e-05
18	C11G C50U C58G	4.14e-05 ± 2.9e-05
19	C11G C61A C68A	3.62e-05 ± 2.5e-05
20	C11G G59U	2.07e-05 ± 1.9e-05

# Variants of: B1
# Assay: self-cleavage kobs at 160 uM GlcN6P; higher = faster cleavage; RNA array
# Conditions: with glucosamine-6-phosphate
# Outline: as §1
row,Variant,self-cleavage kobs at 160 uM GlcN6P [s⁻¹]
1,C10A C70U,0.00017 ± 0.00013
2,C10U C70A,1.93e-05 ± 1.4e-05
3,C11G A14U C70A,3.35e-05 ± 3e-05
